Reference: the supplement of paper PMC3334620
Whole data set: some 33,000 sequences, median “E-score (-0.5 to 0.5)” near -0.0059, cut for the highest 2% near 0.26. The list shows a part of the results.

Molecular target: T1, Cin5 (UniProt P40917)
T1 sequence: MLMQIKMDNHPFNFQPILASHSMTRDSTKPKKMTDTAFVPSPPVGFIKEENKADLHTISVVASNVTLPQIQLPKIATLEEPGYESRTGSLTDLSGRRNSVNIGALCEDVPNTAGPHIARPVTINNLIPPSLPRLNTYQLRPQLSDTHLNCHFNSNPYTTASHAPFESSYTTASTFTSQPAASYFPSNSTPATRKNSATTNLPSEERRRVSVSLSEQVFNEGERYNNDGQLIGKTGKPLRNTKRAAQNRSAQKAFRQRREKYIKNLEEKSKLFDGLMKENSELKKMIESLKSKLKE
Assay: PBM E-score (8-mer binding enrichment) (E-score (-0.5 to 0.5)); higher = stronger / more preferred TF binding
Details: protein concentration: 100 nM; construct: GST-full length
Procedure, shortened: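 E-scores (a modified Wilcoxon-Mann-Whitney statistic) were assigned by the Universal PBM Analysis Suite to every ungapped eight-base word pooled with its reverse complement. The input came from universal all-10-mer Agilent arrays made double-stranded by primer extension and probed with GST-tagged yeast transcription factors at about 100-200 nM. Fluorescent anti-GST detected bound protein, and masliner normalised the scans.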

| Sequence | PBM E-score |
| --- | --- |
| ACTGAGAA | -0.0132 |
| ATGACGAG | -0.131 |
| ATAAATGG | 0.129 |
| CGGGATTA | 0.294 |
| ACATTTAT | 0.161 |
| GCTCTTTA | -0.0278 |
| CTCTCTGC | 0.0296 |
| ACCCACGT | 0.0347 |
| AAACGGTA | 0.114 |
| ATCGTTGA | 0.0692 |
| AGCATTAG | -0.0591 |
| CACCTTAG | -0.0475 |
| ATCGTCAA | -0.0893 |
| AACATTGA | 0.0511 |
| CCACTCGA | 0.00379 |
| CGTGAGAA | -0.0477 |
| CGTGGGCA | -0.25 |
| CGTATCGA | -0.123 |
| CATGGCAC | 0.00069 |
| CGCGGGAC | 0.16 |
| CACTTCCG | 0.104 |
| AGGAATGA | 0.0586 |
| GTGCGACA | -0.176 |
| AGTTAGTC | -0.0899 |
| ACGCAAGT | -0.0764 |

Quoted at random: 6 entries already listed.

| Sequence | PBM E-score |
| --- | --- |
| ATAAATGG | 0.129 |
| AACATTGA | 0.0511 |
| ACCCACGT | 0.0347 |
| CGTATCGA | -0.123 |
| CGCGGGAC | 0.16 |
| CCACTCGA | 0.00379 |

(list continues)

| Sequence | PBM E-score |
| --- | --- |
| CATGGTAA | 0.0768 |
| AATTGCGC | 0.165 |
| ACGTATAC | 0.113 |
| CTTTCCAC | 0.0658 |
| GGCTAGTA | 0.0442 |
| AGTTAGGA | 0.00723 |
| ACTTCCCG | -0.0152 |
| ACCCTCGT | -0.132 |
| CTGGAGTC | -0.205 |
| CTCCAAGA | -0.00799 |
| CTACCGAA | -0.0351 |
| CGCCTAAC | 0.0449 |
| CAACAATA | 0.155 |
| ACCCCCCT | -0.5 |
| AGGATTCA | -0.0694 |
| TACTGTCA | 0.0969 |
| TAACAGGA | 0.121 |
| AACGAGTG | -0.033 |
| ATACTCCG | 0.162 |
| CACGCATC | -0.0589 |
| GCCGATAC | -0.136 |
| CGAAATGC | 0.165 |
| GCTAGTGA | 0.0843 |
| CCGGTTAG | -0.0145 |
| ACCCTCAT | -0.136 |

| Sequence | PBM E-score |
| --- | --- |
| AGTACCAC | -0.0418 |
| CGGCGCAG | -0.132 |
| ATTTCGTA | 0.177 |
| GGAGTTTA | 0.0247 |
| AACGTTCC | -0.0257 |
| CTTGAGAA | -0.125 |
| GCTGGGTA | -0.0561 |
| ACTTATGG | 0.00867 |
| CCATTGAG | 0.00119 |
| AACAGTAT | 0.155 |
| AACTTCTC | -0.0605 |
| CCGATTTC | -0.0432 |
| CCCCGCCC | 0.121 |
| ATACCAAA | 0.0795 |
| ATGCACTC | 0.0439 |
| ACAGATAG | -0.0585 |
| TACTATGA | 0.25 |
| AGTCGGAC | -0.191 |
| ATTTATTG | 0.0876 |
| ATACCGCG | 0.0963 |
| ATAGAAAG | 0.024 |
| GTTGGACA | -0.13 |
| GAGCGCTC | -0.101 |
| AACGGCAG | 0.0364 |
| AAGTAAGT | 0.0737 |

| Sequence | PBM E-score |
| --- | --- |
| ACTTATAC | 0.122 |
| ATTGTGTC | 0.0997 |
| CAATTCTC | -0.0536 |
| GATCTCGC | 0.0459 |
| CAAGTTGA | 0.107 |
| GACCATCA | 0.0463 |
| CTGCCGCC | -0.348 |
| GTTGCCTA | 0.0737 |
| AAAGTTAA | 0.158 |
| CCAAAAGA | 0.1 |
| GGGTATGA | 0.144 |
| AGGCGAGC | -0.138 |
| CACCGACG | -0.147 |
| GTTAGCAA | 0.15 |
| CCCATAAG | 0.143 |
| AGCCTCCT | -0.176 |
| ACCCTAGG | -0.233 |
| AATGGCTA | 0.274 |
| CAACGCAA | -0.0265 |
| GGCGAACA | -0.095 |
| ACATGGGG | 0.0291 |
| GCTAACAC | -0.0779 |
| CCCGGCGG | -0.00032 |
| CGTCGTCC | -0.115 |
| AAATGAGC | 0.043 |

| Sequence | PBM E-score |
| --- | --- |
| ATATCCAC | 0.152 |
| CGTACCTC | -0.219 |
| AGGCGTAT | 0.211 |
| ATTCGGCG | -0.0854 |
| AAATCAGC | 0.235 |
| GAACAATC | 0.0732 |
| CTTCGCCC | -0.189 |
| CATGCAGG | -0.0612 |
| AGTGATGC | -0.0358 |
| GTTGAATA | 0.194 |
| AGATACAC | 0.217 |
| ACCGGGCT | -0.197 |
| GCCGATCA | 0.00909 |
| GATTCGAA | 0.204 |
| ACTAATTA | 0.228 |
| CACCATCC | -0.131 |
| CATCACAC | 0.0753 |
| AGATTGCT | 0.0412 |
| ATAGACAC | -0.0664 |
| TGGACCAA | -0.0345 |
| AGTTCCTC | -0.161 |
| CCAACCGG | -0.0807 |
| CACAAATG | -0.00062 |
| ACTAGACG | 0.0288 |
| GTACGGCA | 0.0516 |

| Sequence | PBM E-score |
| --- | --- |
| GCGGACCC | -0.2 |
| CAACGGAA | 0.103 |
| AAGAAGTA | 0.0746 |
| AAGATACA | 0.23 |
| ATATGGGG | 0.103 |
| AGAGAGCG | -0.132 |
| CACCAAGC | -0.0799 |
| CAGTCCCC | -0.346 |
| ATGGGGGC | -0.403 |
| GGTCTGTA | 0.0429 |
| GTCACGGA | 0.0312 |
| CAGATTGG | -0.0594 |
| ATATGAAC | 0.132 |
| ACCGGCAT | 0.14 |
| CCAGTGAC | -0.211 |
| AAGGCGAA | -0.0742 |
| ACGTTTTC | 0.127 |
| GTCTGAAC | -0.16 |
| AAGAATTC | 0.0337 |
| AGGCAACC | -0.00586 |
| ATTAAAAA | 0.162 |
| GTCCGGCA | -0.176 |
| AAAGGCGC | -0.0471 |
| TCAAGTCA | 0.0301 |
| AACCAGGC | -0.0368 |

| Sequence | PBM E-score |
| --- | --- |
| TCGTGAGA | -0.0829 |
| CTCGCACC | -0.0787 |
| AGTACGGC | 0.0954 |
| GCTTGAGA | -0.148 |
| CTAGACGA | -0.0959 |
| ATAGTTTA | 0.0429 |
| ACACCGGG | -0.175 |
| AGACTGGG | -0.1 |
| TATTCTGA | 0.0462 |
| CTATGGAG | -0.139 |
| AAGTTTAC | 0.104 |
| GATGACCC | -0.1 |
| ACTCGAAC | 0.0393 |
| AGACTGCG | -0.0973 |
| CCAGCTCC | -0.227 |
| GAATTGCA | 0.161 |
| ATACCTAC | 0.046 |
| CCATACGA | 0.074 |
| ACAATCTG | 0.0544 |
| TAGTAAAA | 0.137 |
| ATCAAGTA | 0.198 |
| AGTATGTA | 0.161 |
